Source: patent publication US20200224181
Numbering of substitutions follows the chain as printed. Tags and fusion partners may be left off the protein sequences shown.

What was measured:
Assay in all cases: activity assay
[1] = target: T1, DNA polymerase theta WT polymerase domain (Homo sapiens) (UniProt O75417); conditions: primer extension with dNTPs, template-free, 5 mM Mn2+, 42 C; polymers up to 150-200 nt; purified recombinant protein; label: 5'-32P or ATTO488; single-stranded DNA
T1 sequence: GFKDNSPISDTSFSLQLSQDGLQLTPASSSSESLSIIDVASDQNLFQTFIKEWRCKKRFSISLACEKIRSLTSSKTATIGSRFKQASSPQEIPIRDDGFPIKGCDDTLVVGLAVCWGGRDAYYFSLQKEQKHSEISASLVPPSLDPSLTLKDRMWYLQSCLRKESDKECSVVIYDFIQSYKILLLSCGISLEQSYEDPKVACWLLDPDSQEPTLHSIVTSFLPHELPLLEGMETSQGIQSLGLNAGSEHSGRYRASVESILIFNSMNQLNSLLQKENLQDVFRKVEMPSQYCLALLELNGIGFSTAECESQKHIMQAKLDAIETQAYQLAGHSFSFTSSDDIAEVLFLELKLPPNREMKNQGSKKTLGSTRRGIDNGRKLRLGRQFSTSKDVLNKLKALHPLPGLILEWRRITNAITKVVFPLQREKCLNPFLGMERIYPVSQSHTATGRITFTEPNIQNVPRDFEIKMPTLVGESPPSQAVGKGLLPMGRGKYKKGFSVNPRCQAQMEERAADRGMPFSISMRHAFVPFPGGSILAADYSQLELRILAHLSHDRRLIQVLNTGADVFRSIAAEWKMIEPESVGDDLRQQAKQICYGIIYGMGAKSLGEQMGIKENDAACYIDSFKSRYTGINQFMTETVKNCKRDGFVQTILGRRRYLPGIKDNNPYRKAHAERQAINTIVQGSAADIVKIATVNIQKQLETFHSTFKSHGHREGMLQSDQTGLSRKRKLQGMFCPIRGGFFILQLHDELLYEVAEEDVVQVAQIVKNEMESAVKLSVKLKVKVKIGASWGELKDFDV

[2] = target: T2, Pol theta CS13 E2335G (Homo sapiens) (UniProt O75417); conditions: primer extension with dNTPs, NTPs and modified NTPs, template-free, 5 mM Mn2+, 42 C; purified recombinant protein; protein details: pSUMO326-derived; label: 5'-32P or ATTO488; single-stranded DNA
T2 sequence: T1 sequence with E544G

[3] = target: T3, Pol theta DW9 L2334M,E2335G (Homo sapiens) (UniProt O75417); conditions: extension with modified nucleotides, template-free, Mn2+; results mainly in figure; purified recombinant protein; protein details: pSUMO326-derived; label: 5'-32P or ATTO488; single-stranded DNA
T3 sequence: T1 sequence with L543M, E544G

[4] = target: T4, Pol theta GC10 P2322V (Homo sapiens) (UniProt O75417); conditions: primer extension with dNTPs, template-free, 5 mM Mn2+, 42 C; purified recombinant protein; protein details: pSUMO326-derived; label: 5'-32P or ATTO488; single-stranded DNA
T4 sequence: T1 sequence with P531V

[5] = target: T5, Pol theta NM11 Y2387F (Homo sapiens) (UniProt O75417); conditions: primer extension with dNTPs, template-free, 5 mM Mn2+, 42 C; purified recombinant protein; protein details: pSUMO326-derived; label: 5'-32P or ATTO488; single-stranded DNA
T5 sequence: T1 sequence with Y596F

Measured: activity on this sequence

TACGCATTAGCATA [ssDNAp 14-mer primer]
active: all assays above
